## Cell number after 72 h of treatment

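Human melanoma cells were exposed to a pair of drugs for 72 h in 1,536-well plates and read by automated microscopy after fixing and staining. Values are the number of DAPI-stained nuclei as a percentage of the DMSO control: 100 is no effect, lower means fewer cells. Concentrations were fixed for each drug; these are the lower of two levels, a fifth of the higher. These are primary screening values without error estimates.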 An unselected part of the screen is shown. A dash means that no value is listed here.

Drugs:
nilotinib (0.2 µM): Cc1cn(-c2cc(NC(=O)c3ccc(C)c(Nc4nccc(-c5cccnc5)n4)c3)cc(C(F)(F)F)c2)cn1
erlotinib (0.8 µM): C#Cc1cccc(Nc2ncnc3cc(OCCOC)c(OCCOC)cc23)c1
selumetinib (0.015 µM): Cn1cnc2c(F)c(Nc3ccc(Br)cc3Cl)c(C(=O)NOCCO)cc21
RKI-983 (0.4 µM): C[C@@H](N)c1ccc(C(=O)Nc2ccnc3[nH]ccc23)cc1
YM155 (0.0004 µM): COCC[n+]1c2c(n(Cc3cnccn3)c1C)C(=O)c1ccccc1C2=O
T0901317 (1.4 µM): O=S(=O)(c1ccccc1)N(CC(F)(F)F)c1ccc(C(O)(C(F)(F)F)C(F)(F)F)cc1
bexarotene (2 µM): C=C(c1ccc(C(=O)O)cc1)c1cc2c(cc1C)C(C)(C)CCC2(C)C
IMD-0354 (0.016 µM): O=C(Nc1cc(C(F)(F)F)cc(C(F)(F)F)c1)c1cc(Cl)ccc1O
NVP-BEZ235 (0.004 µM): Cn1c(=O)n(-c2ccc(C(C)(C)C#N)cc2)c2c3cc(-c4cnc5ccccc5c4)ccc3ncc21

Drugs,MEL-HO,A375,A101D,IPC-298
erlotinib + NVP-BEZ235,81.7,84.3,98.7,87.4
NVP-BEZ235 + YM155,88.9,80.7,80.9,94.4
nilotinib + T0901317,98.3,-,97.5,96.9
NVP-BEZ235 + T0901317,92.8,-,85.6,83.8
NVP-BEZ235 + nilotinib,103,91.1,93.4,98.2
bexarotene + erlotinib,94.9,88.2,84.7,93.4
IMD-0354 + bexarotene,96.8,94.1,105,94.5
nilotinib + erlotinib,92.5,85.2,103,92.0
IMD-0354 + nilotinib,85.7,87.0,91.9,92.8
erlotinib + selumetinib,80.9,79.3,82.7,86.8
selumetinib + IMD-0354,100,89.5,101,84.6
T0901317 + YM155,106,84.7,94.8,87.3
nilotinib + bexarotene,95.6,95.8,89.2,98.4
selumetinib + bexarotene,85.1,78.4,87.8,60.5
IMD-0354 + YM155,114,117,92.9,90.1
IMD-0354 + T0901317,86.1,-,99.6,89.1
YM155 + nilotinib,99.6,80.1,85.5,95.1
YM155 + RKI-983,75.3,100,101,97.4
bexarotene + YM155,93.1,23.9,101,107
RKI-983 + IMD-0354,69.7,87.4,91.6,109
erlotinib + RKI-983,87.3,91.2,79.1,92.8
nilotinib + selumetinib,89.7,92.7,96.3,93.3
T0901317 + erlotinib,82.6,80.5,78.4,79.2
NVP-BEZ235 + IMD-0354,103,107,98.0,100
bexarotene + NVP-BEZ235,75.7,87.8,85.8,96.1
RKI-983 + selumetinib,88.9,79.2,109,92.8
nilotinib + RKI-983,73.7,79.5,84.6,103
YM155 + selumetinib,100,93.7,95.1,73.9
NVP-BEZ235 + selumetinib,90.9,65.5,84.7,65.5
RKI-983 + NVP-BEZ235,84.1,77.4,82.7,96.7
erlotinib + IMD-0354,102,97.2,95.1,97.1

Some entries from above, unchanged:

Drugs	MEL-HO	A375	A101D	IPC-298
bexarotene + YM155	93.1	23.9	101	107
nilotinib + RKI-983	73.7	79.5	84.6	103
RKI-983 + selumetinib	88.9	79.2	109	92.8
YM155 + RKI-983	75.3	100	101	97.4

Source: doi:10.1371/journal.pone.0140310, primary screening data, rounded.